Source: paper PMC6572760
No constants are given. Whether binding was seen depends on the method and setting. In cells and extracts the contact can be indirect. Here binding means that the protein was enriched with, or labelled near, the bait; the list need not be complete. Where a sequence is shown, tags or fusion partners need not be part of it.

The chains behind the UniProt entries cited, without tags or fusion partners.
UniProt Q06681: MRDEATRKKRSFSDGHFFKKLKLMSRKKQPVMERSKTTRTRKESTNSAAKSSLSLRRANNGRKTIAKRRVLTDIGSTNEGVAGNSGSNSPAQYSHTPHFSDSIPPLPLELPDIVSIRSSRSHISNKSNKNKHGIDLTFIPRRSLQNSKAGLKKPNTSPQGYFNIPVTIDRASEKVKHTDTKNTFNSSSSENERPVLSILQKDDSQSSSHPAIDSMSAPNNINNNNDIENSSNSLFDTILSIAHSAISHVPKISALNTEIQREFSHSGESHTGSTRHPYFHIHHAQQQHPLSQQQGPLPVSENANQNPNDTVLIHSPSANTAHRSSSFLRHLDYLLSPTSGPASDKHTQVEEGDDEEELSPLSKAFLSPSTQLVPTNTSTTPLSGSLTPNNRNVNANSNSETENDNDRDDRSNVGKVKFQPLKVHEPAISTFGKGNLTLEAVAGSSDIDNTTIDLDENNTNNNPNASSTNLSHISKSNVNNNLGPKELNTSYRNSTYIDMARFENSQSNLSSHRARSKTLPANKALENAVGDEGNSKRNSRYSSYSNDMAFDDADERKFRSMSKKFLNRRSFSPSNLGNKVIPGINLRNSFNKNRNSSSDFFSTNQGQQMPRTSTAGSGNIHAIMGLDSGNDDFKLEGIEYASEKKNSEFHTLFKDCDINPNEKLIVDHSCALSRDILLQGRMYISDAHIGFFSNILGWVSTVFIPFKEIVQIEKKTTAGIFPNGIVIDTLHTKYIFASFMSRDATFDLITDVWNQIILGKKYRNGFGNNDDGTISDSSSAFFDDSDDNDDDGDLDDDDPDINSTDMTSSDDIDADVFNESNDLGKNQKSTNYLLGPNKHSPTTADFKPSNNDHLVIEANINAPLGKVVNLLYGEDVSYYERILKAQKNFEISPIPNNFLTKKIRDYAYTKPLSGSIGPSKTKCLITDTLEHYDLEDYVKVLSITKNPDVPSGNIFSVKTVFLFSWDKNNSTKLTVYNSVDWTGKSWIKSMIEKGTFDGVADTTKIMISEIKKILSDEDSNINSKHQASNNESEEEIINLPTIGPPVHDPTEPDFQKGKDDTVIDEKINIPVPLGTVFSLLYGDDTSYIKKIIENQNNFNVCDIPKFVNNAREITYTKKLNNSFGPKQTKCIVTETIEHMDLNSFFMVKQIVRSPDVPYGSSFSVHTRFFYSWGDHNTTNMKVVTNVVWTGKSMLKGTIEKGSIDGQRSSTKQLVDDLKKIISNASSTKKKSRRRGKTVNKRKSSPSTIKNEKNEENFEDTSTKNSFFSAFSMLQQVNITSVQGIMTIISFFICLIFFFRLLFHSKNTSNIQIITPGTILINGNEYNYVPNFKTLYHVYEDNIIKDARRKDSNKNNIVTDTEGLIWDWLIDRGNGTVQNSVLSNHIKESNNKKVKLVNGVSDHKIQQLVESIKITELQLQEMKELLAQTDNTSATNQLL
UniProt P10961: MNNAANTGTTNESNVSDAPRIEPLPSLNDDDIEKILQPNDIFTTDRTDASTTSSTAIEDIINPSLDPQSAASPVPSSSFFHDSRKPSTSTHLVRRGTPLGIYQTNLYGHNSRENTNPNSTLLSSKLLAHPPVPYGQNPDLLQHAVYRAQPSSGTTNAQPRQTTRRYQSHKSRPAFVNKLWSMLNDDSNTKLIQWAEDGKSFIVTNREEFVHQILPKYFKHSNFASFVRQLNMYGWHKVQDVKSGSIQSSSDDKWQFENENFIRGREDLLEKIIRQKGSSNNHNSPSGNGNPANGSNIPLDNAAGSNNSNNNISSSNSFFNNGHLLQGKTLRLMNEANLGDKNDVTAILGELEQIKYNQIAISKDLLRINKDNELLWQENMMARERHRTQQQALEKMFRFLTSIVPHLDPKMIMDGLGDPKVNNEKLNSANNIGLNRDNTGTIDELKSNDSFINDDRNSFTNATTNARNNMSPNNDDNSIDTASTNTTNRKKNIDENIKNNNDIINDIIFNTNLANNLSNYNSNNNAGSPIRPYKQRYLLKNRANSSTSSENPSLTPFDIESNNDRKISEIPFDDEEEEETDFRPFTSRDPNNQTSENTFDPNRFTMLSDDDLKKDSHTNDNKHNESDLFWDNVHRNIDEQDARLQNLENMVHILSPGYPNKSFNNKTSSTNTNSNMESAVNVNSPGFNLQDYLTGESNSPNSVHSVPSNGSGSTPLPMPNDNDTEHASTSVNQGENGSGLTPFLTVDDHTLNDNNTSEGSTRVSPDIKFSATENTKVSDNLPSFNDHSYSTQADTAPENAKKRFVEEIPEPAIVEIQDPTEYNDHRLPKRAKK

Columns and labels:
Assay in all cases: proximity labelling; M-track protein-protein proximity assay in living yeast: bait fused to HKMTmyc tri-methylates the H3 moiety of Hog1-protA-H3 on close proximity; cells treated with 1 M sorbitol for 40 min (unstressed cells also tested); me3K9H3 over HA signal by Western blot of urea extracts, compared with a strain expressing only Hog1-protA-H3
[1] = molecular target: MYC-HKMT-GL-Ysp2 (N-terminal fusion) (S. cerevisiae) (UniProt Q06681)
[2] = molecular target: Hsf1-HKMTmyc (S. cerevisiae) (UniProt P10961)
[3] = molecular target: T1, Pan1-HKMTmyc (S. cerevisiae) (UniProt P32521)
T1 sequence: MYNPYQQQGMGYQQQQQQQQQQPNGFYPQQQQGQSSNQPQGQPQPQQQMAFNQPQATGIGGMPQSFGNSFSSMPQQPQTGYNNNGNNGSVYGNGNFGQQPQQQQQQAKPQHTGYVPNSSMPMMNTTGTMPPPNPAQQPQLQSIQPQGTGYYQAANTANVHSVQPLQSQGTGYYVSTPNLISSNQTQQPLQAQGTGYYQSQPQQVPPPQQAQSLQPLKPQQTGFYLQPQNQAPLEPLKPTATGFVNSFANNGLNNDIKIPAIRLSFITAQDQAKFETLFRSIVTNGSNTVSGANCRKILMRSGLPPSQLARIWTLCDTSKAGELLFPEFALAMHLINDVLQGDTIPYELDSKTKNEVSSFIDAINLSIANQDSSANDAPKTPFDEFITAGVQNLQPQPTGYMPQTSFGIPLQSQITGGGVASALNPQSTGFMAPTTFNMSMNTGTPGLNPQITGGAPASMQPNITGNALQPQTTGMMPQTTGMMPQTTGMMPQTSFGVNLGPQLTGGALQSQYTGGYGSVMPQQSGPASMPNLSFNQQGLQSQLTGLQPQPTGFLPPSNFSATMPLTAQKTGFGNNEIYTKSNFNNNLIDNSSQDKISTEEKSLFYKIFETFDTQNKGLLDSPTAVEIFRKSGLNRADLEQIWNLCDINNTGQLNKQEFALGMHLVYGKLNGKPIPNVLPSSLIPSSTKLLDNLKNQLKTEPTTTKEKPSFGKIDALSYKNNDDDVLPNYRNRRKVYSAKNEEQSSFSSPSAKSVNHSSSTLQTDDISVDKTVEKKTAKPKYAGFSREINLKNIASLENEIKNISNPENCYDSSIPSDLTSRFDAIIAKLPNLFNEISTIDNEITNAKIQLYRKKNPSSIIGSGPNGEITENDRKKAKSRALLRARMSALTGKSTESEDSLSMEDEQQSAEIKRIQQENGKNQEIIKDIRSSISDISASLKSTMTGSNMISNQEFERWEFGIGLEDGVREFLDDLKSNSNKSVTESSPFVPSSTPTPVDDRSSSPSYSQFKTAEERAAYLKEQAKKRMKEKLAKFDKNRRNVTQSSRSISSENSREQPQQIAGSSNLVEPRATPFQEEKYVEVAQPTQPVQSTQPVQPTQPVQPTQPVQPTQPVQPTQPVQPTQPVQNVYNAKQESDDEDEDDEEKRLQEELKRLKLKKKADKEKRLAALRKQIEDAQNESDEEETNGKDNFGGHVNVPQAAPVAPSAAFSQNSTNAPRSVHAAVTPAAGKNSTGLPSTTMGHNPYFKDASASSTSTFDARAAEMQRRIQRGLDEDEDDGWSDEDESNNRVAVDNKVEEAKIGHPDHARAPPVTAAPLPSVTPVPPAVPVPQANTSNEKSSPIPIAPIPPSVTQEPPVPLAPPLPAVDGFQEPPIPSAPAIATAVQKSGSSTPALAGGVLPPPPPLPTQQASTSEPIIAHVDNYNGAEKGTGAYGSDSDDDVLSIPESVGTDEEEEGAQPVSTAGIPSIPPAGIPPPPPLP

Measured: binding

B1: Hog1-TEV-ProteinA-Histone3-HA (enzyme, UniProt P32485 1-435)
chain: MTTNEEFIRTQIFGTVFEITNRYNDLNPVGMGAFGLVCSATDTLTSQPVAIKKIMKPFSTAVLAKRTYRELKLLKHLRHENLICLQDIFLSPLEDIYFVTELQGTDLHRLLQTRPLEKQFVQYFLYQILRGLKYVHSAGVIHRDLKPSNILINENCDLKICDFGLARIQDPQMTGYVSTRYYRAPEIMLTWQKYDVEVDIWSAGCIFAEMIEGKPLFPGKDHVHQFSIITDLLGSPPKDVINTICSENTLKFVTSLPHRDPIPFSERFKTVEPDAVDLLEKMLVFDPKKRITAADALAHPYSAPYHDPTDEPVADAKFDWHFNDADLPVDTWRVMMYSEILDFHKIGGSDGQIDISATFDDQVAAATAAAAQAQAQAQAQVQLNMAAHSHNGAGTTGNDHSDIAGGNKVSDHVAANDTITDYGNQAIQYANEFQQ
binds: all assays above
